Experimental data taken from PMC3841200.
No constants are given. Whether binding was seen depends on the method and setting. In cells and extracts the contact can be indirect. These calls come from enrichment with a bait or labelling near it, and not all partners need be listed. Tags and fused reporters may be left off the sequences shown.

Target: T1, CPL1 fused to [3xFLAG]-[Streptavidin-binding peptide]-[Protein G] tandem-affinity-purification tag (CPL1-FSG) (Arabidopsis thaliana) (UniProt Q5YDB6)
T1 sequence: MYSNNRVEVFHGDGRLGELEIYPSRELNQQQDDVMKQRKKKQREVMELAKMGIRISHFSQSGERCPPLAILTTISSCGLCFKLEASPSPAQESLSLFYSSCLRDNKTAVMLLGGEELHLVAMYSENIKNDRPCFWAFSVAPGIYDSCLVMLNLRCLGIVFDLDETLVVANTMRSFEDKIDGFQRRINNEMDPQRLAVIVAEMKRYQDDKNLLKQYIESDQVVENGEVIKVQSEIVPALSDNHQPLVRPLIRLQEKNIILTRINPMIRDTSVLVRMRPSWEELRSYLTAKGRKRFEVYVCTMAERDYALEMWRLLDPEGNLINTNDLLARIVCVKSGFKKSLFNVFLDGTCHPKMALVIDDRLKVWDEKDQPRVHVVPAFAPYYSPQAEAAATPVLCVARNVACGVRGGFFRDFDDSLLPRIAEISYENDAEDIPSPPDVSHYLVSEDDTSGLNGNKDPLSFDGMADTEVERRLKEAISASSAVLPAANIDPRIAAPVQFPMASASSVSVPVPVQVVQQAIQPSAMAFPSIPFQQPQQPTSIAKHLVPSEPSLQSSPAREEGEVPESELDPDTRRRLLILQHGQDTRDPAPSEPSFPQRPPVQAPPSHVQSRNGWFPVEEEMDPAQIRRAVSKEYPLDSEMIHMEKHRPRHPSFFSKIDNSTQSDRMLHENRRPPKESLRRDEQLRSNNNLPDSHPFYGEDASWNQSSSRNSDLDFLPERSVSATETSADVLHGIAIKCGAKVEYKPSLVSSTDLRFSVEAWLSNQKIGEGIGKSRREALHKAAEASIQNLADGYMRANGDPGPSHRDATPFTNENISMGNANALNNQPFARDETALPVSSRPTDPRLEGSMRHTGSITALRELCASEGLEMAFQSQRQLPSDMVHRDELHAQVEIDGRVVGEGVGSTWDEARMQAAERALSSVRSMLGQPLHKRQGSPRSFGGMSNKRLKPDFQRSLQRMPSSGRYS
Test: affinity purification with mass spectrometry; tandem affinity purification of CPL1-FSG from callus extract (IgG-Sepharose, TEV cleavage, streptavidin Sepharose, desthiobiotin elution); SDS-PAGE, >200 kDa fraction excised, trypsin, MALDI-TOF/TOF

- binding: binds
B1: REGULATOR OF CBF GENE EXPRESSION 3 (RCF3), endogenous (protein, UniProt Q8W4B1 1-652)
chain: MERSRSKRNYHYDQDYDGDSMPRSKPRYNNNYHFGGGGGGNNRYRGGGGGGGGNGRPSKSHPETMATTTYRILCHDAKAGGVIGKSGTIIKSIRQHTGAWINVHELVPGDAERIIEISDNRRRDPDGRMPSFSPAQEALFSVHDRILESEAQFGYGGPPPEEEEDYGGVRPGGGRVVTRLVVSRMHVGCLLGKGGKIIEQMRIETKTHIRILPRESNLPRCVSLSEEIVQIVGELNAVKNALAIVSSRLRESQHRDRSNFQGRSHSPERSFAAAGDDYMPQLRRQSSDRFPRGNFRNNNFSSRQSNYAEEAPAVPVGENVYSEELVFQILCPADKIVRVVGESQGIIDLLQNEIGVDVRVSDPVAGSDEQIITISSEEAPDDPFFPAQEALLHIQTQIIDLIPDKDNLITTRLLVPSRDSICLEGKAGSVSEISRLTGTSVQILAREEIPRCASINDVVIQITGEIRAAREALVELTLLLRSHMFKELSQKETPPASTSTTGPLEGVAGVMEVASSNNTIQSREGPTSSNLNLQQVSTILPQFKEGFGSVAKAGESEHREEVPVTTSRMAVPLVTRSTLEVVLPEAVVPKLVTKSRNKLAQISEWSGASVTIVEDRPEETQNIIRISGTPEQAERAQSLLQGFILSIQEDGP
